According to paper PMC9115922:

Target: p35 (bait of the mass spectrometry-based interactome screen)
Experiment: affinity purification with mass spectrometry; p35 interactome screen, tandem mass spectrometry; the set-up is in refs 23, 24

- binding: binds
B1: JIP1 (mouse, hit of the p35 interactome screen) (protein, UniProt Q9WVI9 1-707)
chain: MAERESGLGGGAASPPAASPFLGLHIASPPNFRLTHDISLEEFEDEDLSEITDECGISLQCKDTLSLRPPRAGLLSAGSSGSAGSRLQAEMLQMDLIDAAGDTPGAEDDEEEEDDELAAQRPGVGPPKAESNQDPAPRSQGQGPGTGSGDTYRPKRPTTLNLFPQVPRSQDTLNNNSLGKKHSWQDRVSRSSSPLKTGEQTPPHEHICLSDELPPQGSPVPTQDRGTSTDSPCRRSAATQMAPPSGPPATAPGGRGHSHRDRIHYQADVRLEATEEIYLTPVQRPPDPAEPTSTFMPPTESRMSVSSDPDPAAYSVTAGRPHPSISEEDEGFDCLSSPERAEPPGGGWRGSLGEPPPPPRASLSSDTSALSYDSVKYTLVVDEHAQLELVSLRPCFGDYSDESDSATVYDNCASASSPYESAIGEEYEEAPQPRPPTCLSEDSTPDEPDVHFSKKFLNVFMSGRSRSSSAESFGLFSCVINGEEHEQTHRAIFRFVPRHEDELELEVDDPLLVELQAEDYWYEAYNMRTGARGVFPAYYAIEVTKEPEHMAALAKNSDWIDQFRVKFLGSVQVPYHKGNDVLCAAMQKIATTRRLTVHFNPPSSCVLEISVRGVKIGVKADDALEAKGNKCSHFFQLKNISFCGYHPKNNKYFGFITKHPADHRFACHVFVSEDSTKALAESVGRAFQQFYKQFVEYTCPTEDIYLE

These are yes or no findings as the source states them, for the method shown. In cells and extracts the contact can be indirect. A yes stands for co-enrichment or nearness to the bait. Other partners may have been found.
